Measurements published in publication PMC4427335.
Read-outs that look alike come from different tables or passages of the source. No constants are given. Whether binding was seen depends on the method and setting. Binding seen in cells or lysates may run through a third protein. Some entries that bind do so weakly or less than the wild type. For part of these data: Where a sequence is shown, tags or fusion partners need not be part of it.

By UniProt entry, the sequences of proteins in these tests, tags left out. Where a name states a change or a piece, a line headed by the entry shows the natural chain unless it says otherwise. Residues count along the entry.
UniProt P62196: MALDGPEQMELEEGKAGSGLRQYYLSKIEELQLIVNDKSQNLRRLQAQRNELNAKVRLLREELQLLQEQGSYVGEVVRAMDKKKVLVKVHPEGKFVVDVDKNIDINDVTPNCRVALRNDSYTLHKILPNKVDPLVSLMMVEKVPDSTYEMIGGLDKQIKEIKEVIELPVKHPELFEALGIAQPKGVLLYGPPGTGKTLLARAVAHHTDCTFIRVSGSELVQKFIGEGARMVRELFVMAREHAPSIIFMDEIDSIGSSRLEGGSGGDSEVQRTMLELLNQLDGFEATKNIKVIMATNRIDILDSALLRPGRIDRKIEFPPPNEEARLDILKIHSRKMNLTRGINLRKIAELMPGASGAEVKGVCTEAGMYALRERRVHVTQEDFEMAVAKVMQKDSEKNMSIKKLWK
PSMC5-NT: residues 1-151 of P62196
UniProt B2RWS6: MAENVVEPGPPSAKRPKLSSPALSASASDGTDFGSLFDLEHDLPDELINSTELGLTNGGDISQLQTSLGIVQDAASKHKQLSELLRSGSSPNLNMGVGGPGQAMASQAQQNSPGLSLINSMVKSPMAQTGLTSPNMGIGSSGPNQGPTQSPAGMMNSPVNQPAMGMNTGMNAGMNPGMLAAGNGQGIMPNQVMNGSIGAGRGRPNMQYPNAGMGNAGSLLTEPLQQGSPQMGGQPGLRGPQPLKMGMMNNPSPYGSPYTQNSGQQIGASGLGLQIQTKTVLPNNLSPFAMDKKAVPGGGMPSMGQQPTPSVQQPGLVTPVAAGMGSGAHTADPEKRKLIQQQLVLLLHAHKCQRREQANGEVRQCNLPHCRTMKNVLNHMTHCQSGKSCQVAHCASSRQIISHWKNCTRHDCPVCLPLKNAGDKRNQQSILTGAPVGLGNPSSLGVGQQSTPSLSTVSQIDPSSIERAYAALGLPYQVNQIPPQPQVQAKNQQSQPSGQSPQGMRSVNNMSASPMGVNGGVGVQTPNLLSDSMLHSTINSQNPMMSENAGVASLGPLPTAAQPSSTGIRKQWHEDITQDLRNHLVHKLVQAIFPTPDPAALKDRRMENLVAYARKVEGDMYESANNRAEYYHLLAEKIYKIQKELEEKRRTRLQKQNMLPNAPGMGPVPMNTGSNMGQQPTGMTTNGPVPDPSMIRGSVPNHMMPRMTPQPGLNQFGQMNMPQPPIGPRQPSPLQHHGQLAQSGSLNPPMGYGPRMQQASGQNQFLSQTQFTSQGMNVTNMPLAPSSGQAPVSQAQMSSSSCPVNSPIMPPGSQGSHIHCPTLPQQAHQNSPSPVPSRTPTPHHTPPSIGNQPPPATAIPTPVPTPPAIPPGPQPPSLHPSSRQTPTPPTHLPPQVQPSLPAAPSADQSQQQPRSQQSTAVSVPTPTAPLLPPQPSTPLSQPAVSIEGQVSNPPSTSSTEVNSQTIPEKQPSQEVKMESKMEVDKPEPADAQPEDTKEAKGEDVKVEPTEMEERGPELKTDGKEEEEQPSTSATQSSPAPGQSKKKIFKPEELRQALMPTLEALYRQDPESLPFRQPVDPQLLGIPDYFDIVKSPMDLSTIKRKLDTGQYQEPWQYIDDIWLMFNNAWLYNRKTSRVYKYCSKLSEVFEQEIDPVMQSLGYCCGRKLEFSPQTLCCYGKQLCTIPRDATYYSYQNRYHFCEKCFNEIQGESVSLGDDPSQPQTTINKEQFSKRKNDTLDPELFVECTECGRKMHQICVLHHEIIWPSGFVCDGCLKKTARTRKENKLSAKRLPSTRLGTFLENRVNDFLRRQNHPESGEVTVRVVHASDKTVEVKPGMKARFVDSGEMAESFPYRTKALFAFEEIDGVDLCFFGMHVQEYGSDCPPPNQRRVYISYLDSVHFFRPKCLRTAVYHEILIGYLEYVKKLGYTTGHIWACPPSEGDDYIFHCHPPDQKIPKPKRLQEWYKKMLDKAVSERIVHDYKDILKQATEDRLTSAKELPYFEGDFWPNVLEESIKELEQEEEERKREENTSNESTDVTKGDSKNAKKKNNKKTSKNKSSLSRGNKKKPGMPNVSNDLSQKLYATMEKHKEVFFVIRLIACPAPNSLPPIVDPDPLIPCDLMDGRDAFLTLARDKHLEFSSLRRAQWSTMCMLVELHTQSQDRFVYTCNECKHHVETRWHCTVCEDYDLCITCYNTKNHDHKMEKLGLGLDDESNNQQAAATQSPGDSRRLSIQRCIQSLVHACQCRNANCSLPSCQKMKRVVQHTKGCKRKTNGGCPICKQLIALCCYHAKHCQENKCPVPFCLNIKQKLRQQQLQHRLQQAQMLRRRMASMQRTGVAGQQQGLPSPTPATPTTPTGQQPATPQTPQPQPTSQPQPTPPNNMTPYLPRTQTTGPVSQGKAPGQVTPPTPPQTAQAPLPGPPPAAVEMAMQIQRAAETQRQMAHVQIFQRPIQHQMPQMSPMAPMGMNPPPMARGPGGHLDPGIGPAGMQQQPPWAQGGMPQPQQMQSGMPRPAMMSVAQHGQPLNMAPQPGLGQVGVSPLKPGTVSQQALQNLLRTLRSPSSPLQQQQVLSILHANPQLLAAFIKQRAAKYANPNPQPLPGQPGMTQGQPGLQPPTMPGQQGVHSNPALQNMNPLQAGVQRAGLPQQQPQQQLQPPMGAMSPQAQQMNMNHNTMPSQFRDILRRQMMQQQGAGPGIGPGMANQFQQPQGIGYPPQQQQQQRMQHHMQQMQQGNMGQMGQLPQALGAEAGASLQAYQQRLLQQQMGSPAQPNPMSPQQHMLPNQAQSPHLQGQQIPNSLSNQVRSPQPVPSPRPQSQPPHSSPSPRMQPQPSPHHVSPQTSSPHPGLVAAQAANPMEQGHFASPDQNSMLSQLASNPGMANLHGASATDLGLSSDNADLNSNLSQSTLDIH
UniProt Q3TKT4: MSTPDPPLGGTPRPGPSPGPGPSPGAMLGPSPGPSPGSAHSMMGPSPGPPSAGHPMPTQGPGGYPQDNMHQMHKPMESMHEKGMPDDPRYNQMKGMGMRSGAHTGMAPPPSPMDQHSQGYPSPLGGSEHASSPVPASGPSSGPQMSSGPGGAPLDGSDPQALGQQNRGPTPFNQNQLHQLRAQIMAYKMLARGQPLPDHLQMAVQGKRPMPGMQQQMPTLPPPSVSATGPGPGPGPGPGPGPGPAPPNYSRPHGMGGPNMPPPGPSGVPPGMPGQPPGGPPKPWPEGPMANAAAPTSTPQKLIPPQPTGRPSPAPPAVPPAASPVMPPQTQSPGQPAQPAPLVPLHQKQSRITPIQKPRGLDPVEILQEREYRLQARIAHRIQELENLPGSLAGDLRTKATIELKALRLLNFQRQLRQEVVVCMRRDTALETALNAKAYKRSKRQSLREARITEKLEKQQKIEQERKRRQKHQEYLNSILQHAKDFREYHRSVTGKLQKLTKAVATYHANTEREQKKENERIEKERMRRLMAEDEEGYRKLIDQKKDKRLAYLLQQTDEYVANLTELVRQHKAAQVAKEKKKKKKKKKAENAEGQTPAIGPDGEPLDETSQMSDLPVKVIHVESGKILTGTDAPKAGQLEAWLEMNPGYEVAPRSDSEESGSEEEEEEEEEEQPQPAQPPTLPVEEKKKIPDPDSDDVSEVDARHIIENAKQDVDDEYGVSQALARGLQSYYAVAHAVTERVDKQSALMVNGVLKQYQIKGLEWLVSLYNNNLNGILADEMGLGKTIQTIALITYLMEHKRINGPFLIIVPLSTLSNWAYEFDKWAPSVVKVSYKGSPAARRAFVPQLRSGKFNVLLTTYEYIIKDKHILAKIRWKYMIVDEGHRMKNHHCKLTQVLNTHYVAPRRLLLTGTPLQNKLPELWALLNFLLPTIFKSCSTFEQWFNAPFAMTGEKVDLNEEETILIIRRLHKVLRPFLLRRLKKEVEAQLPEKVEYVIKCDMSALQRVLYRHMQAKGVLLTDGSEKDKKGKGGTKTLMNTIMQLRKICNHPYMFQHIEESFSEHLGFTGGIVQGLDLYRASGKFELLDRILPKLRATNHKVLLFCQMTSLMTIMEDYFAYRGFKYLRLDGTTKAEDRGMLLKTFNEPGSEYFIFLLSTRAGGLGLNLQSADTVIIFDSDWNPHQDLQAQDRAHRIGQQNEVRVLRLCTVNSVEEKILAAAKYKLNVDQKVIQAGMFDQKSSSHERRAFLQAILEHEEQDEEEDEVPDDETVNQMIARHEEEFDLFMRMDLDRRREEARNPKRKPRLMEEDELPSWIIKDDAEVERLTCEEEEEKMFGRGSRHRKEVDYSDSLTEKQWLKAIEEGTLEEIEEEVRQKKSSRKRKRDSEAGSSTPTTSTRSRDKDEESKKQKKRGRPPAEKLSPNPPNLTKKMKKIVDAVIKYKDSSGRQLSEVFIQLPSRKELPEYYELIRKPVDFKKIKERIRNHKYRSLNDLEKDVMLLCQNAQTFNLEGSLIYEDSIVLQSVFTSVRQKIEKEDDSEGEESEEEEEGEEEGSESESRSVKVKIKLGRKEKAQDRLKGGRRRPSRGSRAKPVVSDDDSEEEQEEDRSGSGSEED

Assays:
[1] = molecular target: endogenous PSMC5, mouse nucleus accumbens (mouse (endogenous in nucleus accumbens)) (UniProt P62196); experiment: co-IP; nuclear fractions of punch-dissected mouse NAc after chronic cocaine (20 mg/kg IP daily for 7 days, 24 hr after the last injection); Nuclear Complex Co-IP kit (Active Motif); immunoprecipitation with anti-PSMC5, anti-CBP, anti-p300 or anti-BRG1; Western blot with anti-FosB/ΔFosB or anti-BRG1; all proteins endogenous
[2] = molecular target: FLAG-tagged PSMC5 (UniProt P62196); experiment: co-IP; Neuro 2A cells co-transfected with ΔFosB or ΔFosB-LZM and FLAG-tagged PSMC5 or its mutants; lysed in RIPA buffer two days later; immunoprecipitation with anti-FLAG (nonimmune IgG as control), Protein G beads, 3 hr at 4°C; Western blot with anti-FosB/ΔFosB
[3] = molecular target: PSMC5-NT (UniProt P62196); experiment: as above
[4] = substrate: CBP (CREB binding protein), mouse nucleus accumbens (mouse (endogenous in nucleus accumbens)) (UniProt P45481); experiment: co-IP; nuclear fractions of punch-dissected mouse NAc after chronic cocaine (20 mg/kg IP daily for 7 days, 24 hr after the last injection); Nuclear Complex Co-IP kit (Active Motif); immunoprecipitation with anti-PSMC5, anti-CBP, anti-p300 or anti-BRG1; Western blot with anti-FosB/ΔFosB or anti-BRG1; all proteins endogenous
[5] = molecular target: p300, mouse nucleus accumbens (mouse (endogenous in nucleus accumbens)) (UniProt B2RWS6); experiment: as above
[6] = molecular target: BRG1, mouse nucleus accumbens (mouse (endogenous in nucleus accumbens)) (UniProt Q3TKT4); experiment: as above
[7] = molecular target: endogenous PSMC5, mouse nucleus accumbens (mouse (endogenous in nucleus accumbens)) (UniProt P62196); experiment: as above; remark: listed apart in the source
[8] = molecular target: p300, in Neuro2A cells (mouse (endogenous in Neuro2A)) (UniProt B2RWS6); experiment: co-IP; Neuro2A cells transfected with MYC-tagged ΔFosB forms or FLAG-tagged PSMC5 forms; cell extracts immunoprecipitated with anti-CBP or anti-p300 antibody (endogenous CBP, p300); Western blot with anti-MYC or anti-FLAG
[9] = substrate: CBP (CREB binding protein), in Neuro2A cells (mouse (endogenous in Neuro2A)) (UniProt P45481); experiment: as above

BRG1, mouse nucleus accumbens (from UniProt Q3TKT4 1-1613)
binding [1]: binds

B1: ΔFosB (pcDNA3.1-ΔFosB) (protein, UniProt P13346-2 1-237)
chain: MFQAFPGDYDSGSRCSSSPSAESQYLSSVDSFGSPPTAAASQECAGLGEMPGSFVPTVTAITTSQDLQWLVQPTLISSMAQSQGQPLASQPPAVDPYDMPGTSYSTPGLSAYSTGGASGSGGPSTSTTTSGPVSARPARARPRRPREETLTPEEEEKRRVRRERNKLAAAKCRNRRRELTDRLQAETDQLEEEKAELESEIAELQKEKERLEFVLVAHKPGCKIPYEEGPGPGPLAE
binding [2]: binds | binding [3]: binds

B2: endogenous ΔFosB, mouse nucleus accumbens (protein, UniProt P13346-2 1-237)
chain: B1 chain
binding [4]: binds | binding [5]: binds | binding [6]: binds | binding [7]: binds

B3: MYC-tagged ΔFosB (protein, UniProt P13346-2 1-237)
chain: B1 chain
binding [8]: binds | binding [9]: binds
